PubChem BioAssay AID1259254 | NCATS – 2017
In all, the deposit lists about 59,000 reagents; shown is a part drawn at random. Of all reagents, about 1,550 (2.6%) got an active call. 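G2 share is only a proxy for re-replication; each gene was hit by three separate siRNAs, and active genes were retested.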 Raw values are not corrected between plates. Not stated in the record: the amount of reagent.

Purpose: 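Genome-wide screen for genes that prevent DNA re-replication in cancer cells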 (primary screen)
Cells: human HCT116 colorectal cancer cells
Reagents: single siRNA against human genes
Time to read-out: 3 days
Measurement: 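Imaged Hoechst DNA stain sorts each cell into a cycle phase by DNA amount; per plate, G2 fraction set to 0% for non-targeting and 100% for GMNN siRNA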
Direction: G2 robust z-score and G2 cells, % of GMNN control: higher = more G2 cells, more excess DNA replication; raw share of cells in G2: higher = larger share of cells with G2 DNA content
Active means: 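Active siRNAs have a G2 robust z of 5 or more median absolute deviations over the median, which in these data means about 38% or higher of GMNN control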

target	PubChem SID	G2 robust z-score	G2 cells, % of GMNN control	raw share of cells in G2 (%)	Outcome
SAG	SID160716325	-0.0881	2.35	5.79	inactive
SAG	SID160716326	-0.651	-1.61	4.06	inactive
SAG	SID160716327	-0.33	0.648	4.36	inactive
MINK1	SID160739607	-0.105	2.23	6.28	inactive
MINK1	SID160739608	2.18	18.3	11.9	inactive
MINK1	SID160739609	1.57	14	8.16	inactive
ZBTB44	SID160738990	0.878	9.14	7.35	inactive
ZBTB44	SID160738991	0.204	4.4	6.21	inactive
ZBTB44	SID160738992	0.412	5.87	5.1	inactive
GPS1	SID160773837	1.06	10.4	7.36	inactive
GPS1	SID160773848	0.43	5.99	7.41	inactive
GPS1	SID160773854	1.18	11.2	9.54	inactive
DMBT1	SID160754888	-0.48	-0.407	3.96	inactive
DMBT1	SID160754898	0.673	7.7	7.71	inactive
DMBT1	SID160754909	-0.622	-1.41	4.48	inactive
DCST2	SID160756646	5.68	43	20.4	active
DCST2	SID160756647	-0.305	0.821	3.36	inactive
DCST2	SID160756648	-0.61	-1.33	2.1	inactive
ZNF697	SID160753844	-0.23	1.35	3.56	inactive
ZNF697	SID160753845	-0.188	1.65	3.74	inactive
ZNF697	SID160753846	1.86	16.1	9.16	inactive
ZFP64	SID160731527	-0.832	-2.89	2.72	inactive
ZFP64	SID160744211	-0.763	-2.4	1.95	inactive
ZFP64	SID160744212	-0.515	-0.656	5.61	inactive
ERCC4	SID160761628	-0.912	-3.45	3.99	inactive
ERCC4	SID160761640	2.21	18.5	10.3	inactive
ERCC4	SID160761650	0.963	9.74	8.97	inactive
FBXO17	SID160755178	0.0677	3.44	5.47	inactive
FBXO17	SID160755179	0.658	7.59	5.59	inactive
FBXO17	SID160755180	0.457	6.18	3.63	inactive
